Reference: doi:10.1101/2025.01.31.25321508
No constants are given. Whether binding was seen depends on the method and setting. In cells and extracts the contact can be indirect. Some entries that bind do so weakly or less than the wild type.

Protein sequences, listed by entry. Tags and fused reporters are not part of them.
UniProt Q60749: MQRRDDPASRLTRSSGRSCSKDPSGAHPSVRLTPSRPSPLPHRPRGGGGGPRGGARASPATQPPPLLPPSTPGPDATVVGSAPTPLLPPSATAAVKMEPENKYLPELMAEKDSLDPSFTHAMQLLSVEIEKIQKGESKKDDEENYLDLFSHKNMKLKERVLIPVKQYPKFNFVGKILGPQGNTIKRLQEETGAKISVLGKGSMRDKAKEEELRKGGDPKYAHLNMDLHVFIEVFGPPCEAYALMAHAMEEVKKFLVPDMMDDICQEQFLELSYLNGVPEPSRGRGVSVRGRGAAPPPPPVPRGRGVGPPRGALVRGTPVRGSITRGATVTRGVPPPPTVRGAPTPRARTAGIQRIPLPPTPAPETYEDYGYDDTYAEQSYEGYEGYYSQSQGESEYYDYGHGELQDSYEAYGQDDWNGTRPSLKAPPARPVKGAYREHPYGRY
UniProt Q91V33: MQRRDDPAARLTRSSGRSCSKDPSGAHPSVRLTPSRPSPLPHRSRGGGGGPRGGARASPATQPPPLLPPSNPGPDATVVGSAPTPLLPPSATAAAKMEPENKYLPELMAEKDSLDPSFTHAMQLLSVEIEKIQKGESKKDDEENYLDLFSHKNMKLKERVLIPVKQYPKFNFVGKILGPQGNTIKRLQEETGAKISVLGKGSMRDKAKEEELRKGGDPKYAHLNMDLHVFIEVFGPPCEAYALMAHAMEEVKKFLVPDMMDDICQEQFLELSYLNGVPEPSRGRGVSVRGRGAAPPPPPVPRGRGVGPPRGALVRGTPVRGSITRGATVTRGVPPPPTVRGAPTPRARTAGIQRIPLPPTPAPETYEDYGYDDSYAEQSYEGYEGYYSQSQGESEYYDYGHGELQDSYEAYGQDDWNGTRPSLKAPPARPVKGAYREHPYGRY
UniProt P42227: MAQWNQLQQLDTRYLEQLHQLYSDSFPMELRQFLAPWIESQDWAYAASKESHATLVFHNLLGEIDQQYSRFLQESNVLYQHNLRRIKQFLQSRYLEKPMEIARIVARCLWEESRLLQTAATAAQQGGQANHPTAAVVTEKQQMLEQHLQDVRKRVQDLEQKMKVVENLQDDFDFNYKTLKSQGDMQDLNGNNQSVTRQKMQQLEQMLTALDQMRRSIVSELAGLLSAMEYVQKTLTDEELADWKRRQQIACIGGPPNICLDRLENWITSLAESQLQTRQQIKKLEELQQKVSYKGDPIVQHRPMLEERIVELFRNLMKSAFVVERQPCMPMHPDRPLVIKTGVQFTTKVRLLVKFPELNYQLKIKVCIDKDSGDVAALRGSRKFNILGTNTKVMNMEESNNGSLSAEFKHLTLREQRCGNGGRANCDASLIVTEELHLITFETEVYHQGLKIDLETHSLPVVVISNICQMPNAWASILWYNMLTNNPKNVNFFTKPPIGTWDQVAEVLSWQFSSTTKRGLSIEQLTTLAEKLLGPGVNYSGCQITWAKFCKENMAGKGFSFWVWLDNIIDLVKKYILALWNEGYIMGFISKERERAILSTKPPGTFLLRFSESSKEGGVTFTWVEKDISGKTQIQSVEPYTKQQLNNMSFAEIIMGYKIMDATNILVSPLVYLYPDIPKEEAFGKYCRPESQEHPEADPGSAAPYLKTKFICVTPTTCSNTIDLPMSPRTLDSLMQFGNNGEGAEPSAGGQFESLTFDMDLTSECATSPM
UniProt P52631: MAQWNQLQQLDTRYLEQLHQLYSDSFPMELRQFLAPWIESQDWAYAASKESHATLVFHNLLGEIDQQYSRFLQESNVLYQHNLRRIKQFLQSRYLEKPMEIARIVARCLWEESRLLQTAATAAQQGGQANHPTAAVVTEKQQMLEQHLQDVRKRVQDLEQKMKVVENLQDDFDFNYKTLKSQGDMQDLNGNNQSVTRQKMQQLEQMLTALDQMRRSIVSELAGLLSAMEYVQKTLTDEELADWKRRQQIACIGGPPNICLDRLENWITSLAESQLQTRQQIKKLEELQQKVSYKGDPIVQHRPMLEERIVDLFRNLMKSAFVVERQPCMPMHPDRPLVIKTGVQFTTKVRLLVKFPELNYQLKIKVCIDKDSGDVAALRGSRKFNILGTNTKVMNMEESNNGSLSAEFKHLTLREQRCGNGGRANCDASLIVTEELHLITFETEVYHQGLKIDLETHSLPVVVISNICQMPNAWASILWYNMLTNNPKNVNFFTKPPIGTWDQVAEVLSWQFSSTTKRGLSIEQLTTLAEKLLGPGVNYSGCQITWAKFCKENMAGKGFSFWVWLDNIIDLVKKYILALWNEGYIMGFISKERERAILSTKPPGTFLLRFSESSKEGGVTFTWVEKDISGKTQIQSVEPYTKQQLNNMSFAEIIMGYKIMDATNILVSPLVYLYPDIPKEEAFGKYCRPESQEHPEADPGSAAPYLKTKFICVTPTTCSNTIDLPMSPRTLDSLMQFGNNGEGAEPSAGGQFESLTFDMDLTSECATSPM

Legend:
[1] = molecular target: Flag-Sam68 (Src-associated in mitosis 68 kDa) (UniProt Q60749); test: co-IP
[2] = molecular target: endogenous Sam68 (rat (endogenous in NRVMs)) (UniProt Q91V33); test: co-IP

Row | Substance | binding [1] | binding [2]
1 | STAT3 (from UniProt P42227 1-770) | binds | 
2 | STAT3 (from UniProt P52631 1-770) |  | binds
